# Reference: the supplement of paper PMC8728848
# This is one part of the list.
# B1: PX14351B-bth-512-36-512 (Bacteroides thetaiotaomicron) (protein)
# chain: ASETQQWKTLEDTRSALMGVYGLTRAALADNNTHWICGDLRKGDFTVYKRSDLQAVSDNELNKPYDLLKKVSNWRRFYAVINAASVFMEKAPRTVELDRSYSEQNLKYDIAQVRALRAFAYFYMVRIWGDVPLVTYSYDNGTFPSMPRTDAQTVLSYAKAELLTAIEDLPYQYGTQTNLYYGSYGAQWQGKLFNKLSAYSVLAHICAWQGNYAEAETYSAFIIDHASEINAKYTSIADLTSETGLFYSNASVKGSRILGFNFAHNDNEATQSGHLEQLTLAYPLVQKSYPEIYISKDSLFSIFTNFDDLRFGIIDTIKYSSYYVQNLNEETPVFSKIKIIQDGSAKDNDFGVFGSSIVFTRLEDITLLRAEALCALNRSTEAVSYLNMIRTNRGLREVSFKKDFGNNRESLIAEIFEERRRELMGEGWRWYDLVRRQKLMKDNEAFLRLISSGGIYWPVSEDIITANSQIEQNEFWK
# Experiments:
# Experiment in all cases: glycan array binding signal (z-score within array); higher = stronger binding
# Conditions in all cases: glycan notation: IUPAC condensed, linker removed
# [1] = target: Fuc(a1-2)Gal
# Method in brief: (§1)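 The Consortium for Functional Glycomics database supplied 3228 glycan arrays, of which those lacking an available protein sequence were dropped. The binding signal, a within-array Z-score, was averaged across arrays of the same protein sequence and across linkers. Negative scores can be read as non-binding.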
# [2] = target: Fuc(a1-2)Gal(b1-3)GalNAc
# Method in brief: as §1
# [3] = target: Fuc(a1-2)Gal(b1-3)GalNAc(a1-3)[Fuc(a1-2)]Gal(b1-4)Glc
# Method in brief: as §1
# [4] = target: Fuc(a1-2)Gal(b1-3)GalNAc(a1-3)[Fuc(a1-2)]Gal(b1-4)GlcNAc
# Method in brief: as §1
# [5] = target: Fuc(a1-2)Gal(b1-3)GalNAc(b1-3)Gal
# Method in brief: as §1
# [6] = target: Fuc(a1-2)Gal(b1-3)GalNAc(b1-3)Gal(a1-4)Gal(b1-4)Glc
# Method in brief: as §1
# [7] = target: Fuc(a1-2)Gal(b1-3)GalNAc(b1-4)[Neu5Ac(a2-3)]Gal(b1-4)Glc
# Method in brief: as §1
# [8] = target: Fuc(a1-2)Gal(b1-3)GlcNAc
# Method in brief: as §1
# [9] = target: Fuc(a1-2)Gal(b1-3)GlcNAc(b1-2)Man(a1-3)[Fuc(a1-2)Gal(b1-3)GlcNAc(b1-2)Man(a1-6)]Man(b1-4)GlcNAc(b1-4)GlcNAc
# Method in brief: as §1
# [10] = target: Fuc(a1-2)Gal(b1-3)GlcNAc(b1-2)Man(a1-3)[Fuc(a1-2)Gal(b1-3)GlcNAc(b1-2)Man(a1-6)]Man(b1-4)GlcNAc(b1-4)[Fuc(a1-6)]GlcNAc
# Method in brief: as §1
# [11] = target: Fuc(a1-2)Gal(b1-3)GlcNAc(b1-3)Gal(b1-4)Glc
# Method in brief: as §1
# [12] = target: Fuc(a1-2)Gal(b1-3)GlcNAc(b1-3)GalNAc
# Method in brief: as §1
# [13] = target: Fuc(a1-2)Gal(b1-3)GlcNAc(b1-3)[Fuc(a1-2)Gal(b1-3)GlcNAc(b1-6)]GalNAc
# Method in brief: as §1
# [14] = target: Fuc(a1-2)Gal(b1-3)GlcNAc(b1-3)[Gal(b1-4)GlcNAc(b1-6)]Gal(b1-4)Glc
# Method in brief: as §1
# [15] = target: Fuc(a1-2)Gal(b1-3)GlcNAc(b1-3)[Neu5Ac(a2-6)Gal(b1-4)GlcNAc(b1-6)]Gal(b1-4)Glc
# Method in brief: as §1
# [16] = target: Fuc(a1-2)Gal(b1-3)GlcNAc6S
# Method in brief: as §1
# [17] = target: Fuc(a1-2)Gal(b1-3)[Fuc(a1-4)]GlcNAc
# Method in brief: as §1
# [18] = target: Fuc(a1-2)Gal(b1-3)[Fuc(a1-4)]GlcNAc(b1-2)Man(a1-3)[Fuc(a1-2)Gal(b1-3)[Fuc(a1-4)]GlcNAc(b1-2)Man(a1-3)]Man(b1-4)GlcNAc(b1-4)GlcNAc
# Method in brief: as §1
# [19] = target: Fuc(a1-2)Gal(b1-3)[Fuc(a1-4)]GlcNAc(b1-2)Man(a1-3)[Fuc(a1-2)Gal(b1-3)[Fuc(a1-4)]GlcNAc(b1-2)Man(a1-6)]Man(b1-4)GlcNAc(b1-4)[Fuc(a1-6)]GlcNAc(b1-4)[Fuc(a1-6)]GlcNAc
# Method in brief: as §1
# [20] = target: Fuc(a1-2)Gal(b1-3)[Fuc(a1-4)]GlcNAc(b1-3)[Fuc(a1-3)[Gal(b1-4)]GlcNAc(b1-6)]Gal(b1-4)Glc
# Method in brief: as §1
# [21] = target: Fuc(a1-2)Gal(b1-3)[Fuc(a1-4)]GlcNAc(b1-3)[Gal(b1-4)GlcNAc(b1-6)]Gal(b1-4)Glc
# Method in brief: as §1
# [22] = target: Fuc(a1-2)Gal(b1-4)Glc6S
# Method in brief: as §1
# [23] = target: Fuc(a1-2)Gal(b1-4)GlcNAc
# Method in brief: as §1
# [24] = target: Fuc(a1-2)Gal(b1-4)GlcNAc(b1-2)Man
# Method in brief: as §1
# [25] = target: Fuc(a1-2)Gal(b1-4)GlcNAc(b1-2)Man(a1-3)[Fuc(a1-2)Gal(b1-4)GlcNAc(b1-2)Man(a1-6)]Man(b1-4)GlcNAc(b1-4)GlcNAc
# Method in brief: as §1
# [26] = target: Fuc(a1-2)Gal(b1-4)GlcNAc(b1-2)Man(a1-3)[Fuc(a1-2)Gal(b1-4)GlcNAc(b1-2)Man(a1-6)]Man(b1-4)GlcNAc(b1-4)[Fuc(a1-6)]GlcNAc
# Method in brief: as §1
# [27] = target: Fuc(a1-2)Gal(b1-4)GlcNAc(b1-2)[Fuc(a1-2)Gal(b1-4)GlcNAc(b1-4)]Man(a1-3)[Fuc(a1-2)Gal(b1-4)GlcNAc(b1-2)Man(a1-6)]Man(b1-4)GlcNAc(b1-4)GlcNAc
# Method in brief: as §1
# [28] = target: Fuc(a1-2)Gal(b1-4)GlcNAc(b1-3)Gal(b1-4)GlcNAc
# Method in brief: as §1
# [29] = target: Fuc(a1-2)Gal(b1-4)GlcNAc(b1-3)Gal(b1-4)GlcNAc(b1-2)Man(a1-3)[Fuc(a1-2)Gal(b1-4)GlcNAc(b1-3)Gal(b1-4)GlcNAc(b1-2)Man(a1-6)]Man(b1-4)GlcNAc(b1-4)GlcNAc
# Method in brief: as §1
# [30] = target: Fuc(a1-2)Gal(b1-4)GlcNAc(b1-3)Gal(b1-4)GlcNAc(b1-3)Gal(b1-4)GlcNAc
# Method in brief: as §1
binder,measurement,setting,value
B1,glycan array binding signal (z-score),[1],-0.213
same,glycan array binding signal (z-score),[2],-0.196
same,glycan array binding signal (z-score),[3],-0.105
same,glycan array binding signal (z-score),[4],-0.211
same,glycan array binding signal (z-score),[5],-0.333
same,glycan array binding signal (z-score),[6],-0.283
same,glycan array binding signal (z-score),[7],-0.23
same,glycan array binding signal (z-score),[8],-0.181
same,glycan array binding signal (z-score),[9],0.253
same,glycan array binding signal (z-score),[10],-0.176
same,glycan array binding signal (z-score),[11],-0.331
same,glycan array binding signal (z-score),[12],-0.124
same,glycan array binding signal (z-score),[13],-0.137
same,glycan array binding signal (z-score),[14],-0.26
same,glycan array binding signal (z-score),[15],-0.082
same,glycan array binding signal (z-score),[16],0.101
same,glycan array binding signal (z-score),[17],-0.358
same,glycan array binding signal (z-score),[18],0.478
same,glycan array binding signal (z-score),[19],-0.147
same,glycan array binding signal (z-score),[20],-0.359
same,glycan array binding signal (z-score),[21],0.018
same,glycan array binding signal (z-score),[22],0.658
same,glycan array binding signal (z-score),[23],-0.311
same,glycan array binding signal (z-score),[24],-0.373
same,glycan array binding signal (z-score),[25],-0.081
same,glycan array binding signal (z-score),[26],-0.264
same,glycan array binding signal (z-score),[27],-0.061
same,glycan array binding signal (z-score),[28],-0.208
same,glycan array binding signal (z-score),[29],-0.146
same,glycan array binding signal (z-score),[30],-0.311

# 2 records drawn at random from those above, as already listed:
binder,measurement,setting,value
B1,glycan array binding signal (z-score),[20],-0.359
same,glycan array binding signal (z-score),[27],-0.061
